Assay results reported in article PMC4396693, “Structural Basis of Latrophilin-FLRT Interaction” (Structure(London, England:1993), 2015).
Where a chain is given by its changes, count along the chain named. No constants are given. Whether binding was seen depends on the method and setting. Tags and fused reporters may be left off the sequences shown.

What was measured:
[1] = target: T1, murine LPHN3^Lec-Olf mutant LPHN3^LF(2) (R324N+G326T), biotinylated at a C-terminal Avi-Tag (murine) (UniProt Q80TS3); assay: SPR; biotinylated wild-type or mutant LPHN3^Lec-Olf on streptavidin-coated Biacore chips, FLRT2 ectodomain injected as analyte; equilibrium, 25°C, PBS pH 7.5, 0.005% polysorbate 20; 1:1 model; both purified
T1 sequence (chain, biotin on the C-terminal Avi-Tag (enzymatic)): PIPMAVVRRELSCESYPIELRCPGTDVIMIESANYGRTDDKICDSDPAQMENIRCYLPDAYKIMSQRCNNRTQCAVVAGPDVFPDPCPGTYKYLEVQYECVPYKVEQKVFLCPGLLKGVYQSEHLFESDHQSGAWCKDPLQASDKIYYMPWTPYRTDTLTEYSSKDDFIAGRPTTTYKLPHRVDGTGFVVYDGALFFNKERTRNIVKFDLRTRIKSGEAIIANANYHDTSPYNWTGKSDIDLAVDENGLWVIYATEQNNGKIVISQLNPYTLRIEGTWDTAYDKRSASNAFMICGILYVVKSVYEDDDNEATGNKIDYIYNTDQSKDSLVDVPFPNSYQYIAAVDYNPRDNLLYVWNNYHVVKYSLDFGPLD

[2] = target: T2, murine LPHN3^Lec-Olf mutant LPHN3^LF (R292N+R294T), biotinylated at a C-terminal Avi-Tag (murine) (UniProt Q80TS3); assay: as above
T2 sequence (chain, biotin on the C-terminal Avi-Tag (enzymatic)): T1 sequence (chain, biotin on the C-terminal Avi-Tag (enzymatic)) with R201N, R203T, N233R, T235G

B1: murine FLRT2 full ectodomain, wild type (residues 35-540) (domain or fragment)
chain: ACPSVCRCDRNFVYCNERSLTSVPLGIPEGVTVLYLHNNQINNAGFPAELHNVQSVHTVYLYGNQLDEFPMNLPKNVRVLHLQENNIQTISRAALAQLLKLEELHLDDNSISTVGVEDGAFREAISLKLLFLSKNHLSSVPVGLPVDLQELRVDENRIAVISDMAFQNLTSLERLIVDGNLLTNKGIAEGTFSHLTKLKEFSIVRNSLSHPPPDLPGTHLIRLYLQDNQINHIPLTAFANLRKLERLDISNNQLRMLTQGVFDHLSNLKQLTARNNPWFCDCSIKWVTEWLKYIPSSLNVRGFMCQGPEQVRGMAVRELNMNLLSCPTTTPGLPVFTPAPSTVSPTTQSPTLSVPSPSRGSVPPAPTPSKLPTIPDWDGRERVTPPISERIQLSIHFVNDTSIQVSWLSLFTVMAYKLTWVKMGHSLVGGIVQERIVSGEKQHLSLVNLEPRSTYRICLVPLDAFNYRTVEDTICSEATTHASYLNNGSNTASSHEQTTSHSMGSP
- binding [1]: no binding
- binding [2]: no binding
